Assay results

From PubChem BioAssay record AID504749 (NCATS, 2011).

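Malaria parasite (P. falciparum) lines kept in red blood cells; parasite DNA is measured by SYBR Green fluorescence after lysis, 72 h after compound addition.
Each compound was titrated across a series from about 0.000037 to 29 µM.
The number is the fitted AC50, the concentration giving a half-maximal change in signal; a lower value means higher potency, whether the curve shows a decrease or an increase.
Calls follow the curve class and fit quality: every row here is inconclusive, covering signal-raising curves and weak, poorly fitted, partial or highest-dose-only inhibition curves.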

Values are in µM.
All entries here are filed as inconclusive.
These entries are mostly ones the record files as inconclusive; other results of the assay are not listed here.
A potency from a partial, single-point or poor curve is only a rough figure.
Some entries filed as inconclusive have a full curve.

Result for CCC1OC(=O)CC(O)C(C)[C@@H](O[C@@H]2OC(C)[C@H](O[C@@H]3C[C@@](C)(O)C(O)C(C)O3)C(N(C)C)C2O)[C@H](CC=O)CC(C)C(=O)/C=C/C(C)=C/[C@@H]1COC1OC(C)C(O)C(OC)[C@@H]1OC (stereo partly shown) [CP194] was potency 1.694 µM (inhibitor, full curve).
Result for CCC1OC(=O)CC(O)C(C)[C@@H](O[C@@H]2OC(C)[C@H](O[C@@H]3C[C@@](C)(O)C(O)C(C)O3)C(N(C)C)C2O)[C@H](CC=O)CC(C)C(=O)/C=C/C(C)=C/[C@@H]1COC1OC(C)C(O)C(OC)[C@@H]1OC (stereo partly shown) [ATS95] was potency 1.585 µM (inhibitor, partial curve).
Result for CCC1OC(=O)CC(O)C(C)[C@@H](O[C@@H]2OC(C)[C@H](O[C@@H]3C[C@@](C)(O)C(O)C(C)O3)C(N(C)C)C2O)[C@H](CC=O)CC(C)C(=O)/C=C/C(C)=C/[C@@H]1COC1OC(C)C(O)C(OC)[C@@H]1OC (stereo partly shown) [ATS189] was potency 2.512 µM (inhibitor, full curve).
Result for CCC1OC(=O)CC(O)C(C)[C@@H](O[C@@H]2OC(C)[C@H](O[C@@H]3C[C@@](C)(O)C(O)C(C)O3)C(N(C)C)C2O)[C@H](CC=O)CC(C)C(=O)/C=C/C(C)=C/[C@@H]1COC1OC(C)C(O)C(OC)[C@@H]1OC (stereo partly shown) [DIV14] was potency 2.393 µM (inhibitor, partial curve).
Result for CCC1OC(=O)CC(O)C(C)[C@@H](O[C@@H]2OC(C)[C@H](O[C@@H]3C[C@@](C)(O)C(O)C(C)O3)C(N(C)C)C2O)[C@H](CC=O)CC(C)C(=O)/C=C/C(C)=C/[C@@H]1COC1OC(C)C(O)C(OC)[C@@H]1OC (stereo partly shown) [CP217] was potency 2.239 µM (inhibitor, full curve).
Result for CCC1OC(=O)CC(O)C(C)[C@@H](O[C@@H]2OC(C)[C@H](O[C@@H]3C[C@@](C)(O)C(O)C(C)O3)C(N(C)C)C2O)[C@H](CC=O)CC(C)C(=O)/C=C/C(C)=C/[C@@H]1COC1OC(C)C(O)C(OC)[C@@H]1OC (stereo partly shown) [CP247] was potency 3.548 µM (inhibitor, partial curve).
Result for CCC1OC(=O)CC(O)C(C)[C@@H](O[C@@H]2OC(C)[C@H](O[C@@H]3C[C@@](C)(O)C(O)C(C)O3)C(N(C)C)C2O)[C@H](CC=O)CC(C)C(=O)/C=C/C(C)=C/[C@@H]1COC1OC(C)C(O)C(OC)[C@@H]1OC (stereo partly shown) [CP192] was potency 2.393 µM (inhibitor, partial curve).
Result for CCC1OC(=O)CC(O)C(C)[C@@H](O[C@@H]2OC(C)[C@H](O[C@@H]3C[C@@](C)(O)C(O)C(C)O3)C(N(C)C)C2O)[C@H](CC=O)CC(C)C(=O)/C=C/C(C)=C/[C@@H]1COC1OC(C)C(O)C(OC)[C@@H]1OC (stereo partly shown) [TAB165] was potency 1.122 µM (inhibitor, full curve).
Result for CCC1OC(=O)CC(O)C(C)[C@@H](O[C@@H]2OC(C)[C@H](O[C@@H]3C[C@@](C)(O)C(O)C(C)O3)C(N(C)C)C2O)[C@H](CC=O)CC(C)C(=O)/C=C/C(C)=C/[C@@H]1COC1OC(C)C(O)C(OC)[C@@H]1OC (stereo partly shown) [DFO2036] was potency 0.8913 µM (inhibitor, full curve).
Result for CCC1OC(=O)CC(O)C(C)[C@@H](O[C@@H]2OC(C)[C@H](O[C@@H]3C[C@@](C)(O)C(O)C(C)O3)C(N(C)C)C2O)[C@H](CC=O)CC(C)C(=O)/C=C/C(C)=C/[C@@H]1COC1OC(C)C(O)C(OC)[C@@H]1OC (stereo partly shown) [P94_40] was potency 0.8913 µM (inhibitor, full curve).
Result for CCC1OC(=O)CC(O)C(C)[C@@H](O[C@@H]2OC(C)[C@H](O[C@@H]3C[C@@](C)(O)C(O)C(C)O3)C(N(C)C)C2O)[C@H](CC=O)CC(C)C(=O)/C=C/C(C)=C/[C@@H]1COC1OC(C)C(O)C(OC)[C@@H]1OC (stereo partly shown) [GB4] was potency 2.133 µM (inhibitor, partial curve).
Result for CCC1OC(=O)CC(O)C(C)[C@@H](O[C@@H]2OC(C)[C@H](O[C@@H]3C[C@@](C)(O)C(O)C(C)O3)C(N(C)C)C2O)[C@H](CC=O)CC(C)C(=O)/C=C/C(C)=C/[C@@H]1COC1OC(C)C(O)C(OC)[C@@H]1OC (stereo partly shown) [AA1029] was potency 0.8913 µM (inhibitor, full curve).
Result for CCC1OC(=O)CC(O)C(C)[C@@H](O[C@@H]2OC(C)[C@H](O[C@@H]3C[C@@](C)(O)C(O)C(C)O3)C(N(C)C)C2O)[C@H](CC=O)CC(C)C(=O)/C=C/C(C)=C/[C@@H]1COC1OC(C)C(O)C(OC)[C@@H]1OC (stereo partly shown) [CP305] was potency 1.069 µM (inhibitor, partial curve).
Result for CCC1OC(=O)CC(O)C(C)[C@@H](O[C@@H]2OC(C)[C@H](O[C@@H]3C[C@@](C)(O)C(O)C(C)O3)C(N(C)C)C2O)[C@H](CC=O)CC(C)C(=O)/C=C/C(C)=C/[C@@H]1COC1OC(C)C(O)C(OC)[C@@H]1OC (stereo partly shown) [3D7] was potency 10 µM (inhibitor, single point).
Result for CCC1OC(=O)CC(O)C(C)[C@@H](O[C@@H]2OC(C)[C@H](O[C@@H]3C[C@@](C)(O)C(O)C(C)O3)C(N(C)C)C2O)[C@H](CC=O)CC(C)C(=O)/C=C/C(C)=C/[C@@H]1COC1OC(C)C(O)C(OC)[C@@H]1OC (stereo partly shown) [PAD] was potency 3.548 µM (inhibitor, partial curve).
Result for CCC1OC(=O)CC(O)C(C)[C@@H](O[C@@H]2OC(C)[C@H](O[C@@H]3C[C@@](C)(O)C(O)C(C)O3)C(N(C)C)C2O)[C@H](CC=O)CC(C)C(=O)/C=C/C(C)=C/[C@@H]1COC1OC(C)C(O)C(OC)[C@@H]1OC (stereo partly shown) [DIV30] was potency 4.776 µM (inhibitor, partial curve).

Repeated from the top, 2 entries:

{"smiles": "CCC1OC(=O)CC(O)C(C)[C@@H](O[C@@H]2OC(C)[C@H](O[C@@H]3C[C@@](C)(O)C(O)C(C)O3)C(N(C)C)C2O)[C@H](CC=O)CC(C)C(=O)/C=C/C(C)=C/[C@@H]1COC1OC(C)C(O)C(OC)[C@@H]1OC", "stereo": "stereo partly shown", "setting": "CP194", "potency (µM)": "1.694", "curve": "inhibitor, full curve"}
{"smiles": "CCC1OC(=O)CC(O)C(C)[C@@H](O[C@@H]2OC(C)[C@H](O[C@@H]3C[C@@](C)(O)C(O)C(C)O3)C(N(C)C)C2O)[C@H](CC=O)CC(C)C(=O)/C=C/C(C)=C/[C@@H]1COC1OC(C)C(O)C(OC)[C@@H]1OC", "stereo": "stereo partly shown", "setting": "ATS95", "potency (µM)": "1.585", "curve": "inhibitor, partial curve"}